Where a name gives a salt, the structure may show the parent alone. The list shows a part of the results. Hit calls seldom repeat between salt and free forms of one compound.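 Kinases were expressed as nanoluciferase fusions in K562 cells and luminescence was read every 4 h between 2 and 18 h as percent of control, DMSO set to 100% and a positive control to 0%. A time point counts as decreased when the signal drops significantly (2 sigma). The hit call is the authors' own, does not follow from the count of time points alone, and its rule is not shown.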
Legend:
Test in all cases: number of time points (of 5) at which kinase-Nluc abundance scored as decreased, DMSO-normalised (count); higher = more persistent destabilization
Settings in all cases: K562; 2-18 h
PRKCA = PRKCA (UniProt P17252)
PTK2 = PTK2 (UniProt Q05397)
PTK2B = PTK2B (UniProt Q14289)
RAF1 = RAF1 (UniProt P04049)
[1] = target: RAF1_S257L (clone: RAF1_mut) (UniProt P04049)
RET = RET (UniProt P07949)
[2] = target: RET_M918T (clone: RET_mut) (UniProt P07949)
RIOK1 = RIOK1 (UniProt Q9BRS2)
RIPK1 = RIPK1 (UniProt Q13546)
RIPK2 = RIPK2 (UniProt O43353)

The chains behind the UniProt entries cited, without tags or fusion partners. Where a name states a change or a piece, a line headed by the entry shows the natural chain unless it says otherwise.
UniProt Q05397, whole entry, looked up: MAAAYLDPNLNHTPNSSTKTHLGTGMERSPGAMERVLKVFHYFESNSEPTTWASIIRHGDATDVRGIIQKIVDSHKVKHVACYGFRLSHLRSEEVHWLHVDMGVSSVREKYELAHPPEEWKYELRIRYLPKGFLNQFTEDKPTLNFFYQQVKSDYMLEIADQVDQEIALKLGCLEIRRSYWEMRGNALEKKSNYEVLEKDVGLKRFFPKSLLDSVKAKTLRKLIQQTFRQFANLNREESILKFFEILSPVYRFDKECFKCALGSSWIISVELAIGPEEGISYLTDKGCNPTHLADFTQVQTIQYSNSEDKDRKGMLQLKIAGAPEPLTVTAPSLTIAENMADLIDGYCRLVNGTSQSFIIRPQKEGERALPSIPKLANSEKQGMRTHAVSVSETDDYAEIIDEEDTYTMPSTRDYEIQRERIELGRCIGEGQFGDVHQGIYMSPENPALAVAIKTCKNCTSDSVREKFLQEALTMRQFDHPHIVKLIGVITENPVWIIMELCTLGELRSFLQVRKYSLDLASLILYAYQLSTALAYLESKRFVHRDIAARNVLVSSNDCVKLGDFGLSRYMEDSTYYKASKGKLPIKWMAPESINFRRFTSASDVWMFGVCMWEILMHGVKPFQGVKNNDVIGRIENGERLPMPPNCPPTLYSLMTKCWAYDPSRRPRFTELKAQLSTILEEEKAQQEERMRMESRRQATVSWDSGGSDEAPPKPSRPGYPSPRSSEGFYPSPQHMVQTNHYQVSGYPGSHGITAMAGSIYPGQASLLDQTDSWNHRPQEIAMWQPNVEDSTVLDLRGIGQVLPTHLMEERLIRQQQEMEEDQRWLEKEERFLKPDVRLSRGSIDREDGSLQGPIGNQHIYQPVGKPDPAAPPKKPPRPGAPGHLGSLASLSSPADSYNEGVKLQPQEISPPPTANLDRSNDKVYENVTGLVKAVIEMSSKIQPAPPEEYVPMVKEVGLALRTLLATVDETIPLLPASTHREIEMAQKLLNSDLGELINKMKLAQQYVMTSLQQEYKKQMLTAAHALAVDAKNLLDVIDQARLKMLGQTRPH
UniProt Q14289, whole entry, looked up: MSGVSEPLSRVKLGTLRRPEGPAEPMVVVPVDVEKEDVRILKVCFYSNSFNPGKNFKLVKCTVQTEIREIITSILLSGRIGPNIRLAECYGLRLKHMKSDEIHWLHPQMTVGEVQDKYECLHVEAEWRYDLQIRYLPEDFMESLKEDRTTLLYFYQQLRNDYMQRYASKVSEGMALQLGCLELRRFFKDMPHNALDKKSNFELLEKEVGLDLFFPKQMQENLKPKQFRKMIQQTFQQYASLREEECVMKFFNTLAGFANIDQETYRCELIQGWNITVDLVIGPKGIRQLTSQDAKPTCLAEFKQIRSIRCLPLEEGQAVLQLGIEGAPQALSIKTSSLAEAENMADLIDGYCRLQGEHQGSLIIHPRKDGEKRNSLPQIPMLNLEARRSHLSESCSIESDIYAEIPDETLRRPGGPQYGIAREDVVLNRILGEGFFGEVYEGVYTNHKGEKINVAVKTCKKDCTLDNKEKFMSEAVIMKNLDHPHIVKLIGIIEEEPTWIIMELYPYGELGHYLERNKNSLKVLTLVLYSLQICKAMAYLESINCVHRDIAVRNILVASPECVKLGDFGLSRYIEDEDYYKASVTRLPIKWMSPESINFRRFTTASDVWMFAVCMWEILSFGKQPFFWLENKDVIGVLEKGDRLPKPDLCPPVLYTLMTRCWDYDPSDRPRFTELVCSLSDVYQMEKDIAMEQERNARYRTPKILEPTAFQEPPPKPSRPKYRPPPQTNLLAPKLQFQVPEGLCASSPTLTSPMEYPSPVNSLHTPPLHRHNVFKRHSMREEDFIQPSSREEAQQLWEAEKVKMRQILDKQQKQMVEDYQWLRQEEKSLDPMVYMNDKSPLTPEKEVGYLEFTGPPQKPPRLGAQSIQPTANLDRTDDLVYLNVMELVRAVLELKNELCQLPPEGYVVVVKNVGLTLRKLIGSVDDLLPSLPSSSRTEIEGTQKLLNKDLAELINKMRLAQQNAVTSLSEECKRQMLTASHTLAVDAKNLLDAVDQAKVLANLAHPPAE
UniProt P07949, whole entry, looked up: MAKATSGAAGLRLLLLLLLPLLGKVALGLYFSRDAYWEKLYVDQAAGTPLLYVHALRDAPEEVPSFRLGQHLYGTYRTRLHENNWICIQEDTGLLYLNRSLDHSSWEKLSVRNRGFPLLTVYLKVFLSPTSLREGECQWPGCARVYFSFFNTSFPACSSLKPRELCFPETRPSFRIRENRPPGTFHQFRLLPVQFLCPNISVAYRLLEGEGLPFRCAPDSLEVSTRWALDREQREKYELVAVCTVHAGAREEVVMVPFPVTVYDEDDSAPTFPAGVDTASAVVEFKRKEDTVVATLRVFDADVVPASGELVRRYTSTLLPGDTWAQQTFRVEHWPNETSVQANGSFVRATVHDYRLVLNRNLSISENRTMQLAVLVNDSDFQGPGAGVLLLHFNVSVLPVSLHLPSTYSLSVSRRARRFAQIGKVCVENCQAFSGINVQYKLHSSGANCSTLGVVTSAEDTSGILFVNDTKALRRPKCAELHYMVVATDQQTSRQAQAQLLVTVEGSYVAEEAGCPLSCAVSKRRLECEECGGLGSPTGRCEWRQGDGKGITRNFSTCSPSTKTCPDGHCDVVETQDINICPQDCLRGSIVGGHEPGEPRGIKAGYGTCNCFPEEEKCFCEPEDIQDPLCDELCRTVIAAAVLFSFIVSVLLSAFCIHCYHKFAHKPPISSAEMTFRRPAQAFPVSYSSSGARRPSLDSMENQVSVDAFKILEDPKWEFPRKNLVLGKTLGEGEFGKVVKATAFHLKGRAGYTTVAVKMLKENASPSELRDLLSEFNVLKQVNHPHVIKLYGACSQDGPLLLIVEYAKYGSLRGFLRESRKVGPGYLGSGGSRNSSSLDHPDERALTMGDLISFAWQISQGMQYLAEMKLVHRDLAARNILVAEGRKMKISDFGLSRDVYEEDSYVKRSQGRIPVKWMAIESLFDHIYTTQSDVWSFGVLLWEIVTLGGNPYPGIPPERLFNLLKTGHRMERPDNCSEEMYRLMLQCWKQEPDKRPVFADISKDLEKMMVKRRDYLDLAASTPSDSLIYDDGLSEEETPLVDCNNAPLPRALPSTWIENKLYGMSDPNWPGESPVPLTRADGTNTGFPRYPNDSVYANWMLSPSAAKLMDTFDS
UniProt P07949, whole entry M918T, looked up: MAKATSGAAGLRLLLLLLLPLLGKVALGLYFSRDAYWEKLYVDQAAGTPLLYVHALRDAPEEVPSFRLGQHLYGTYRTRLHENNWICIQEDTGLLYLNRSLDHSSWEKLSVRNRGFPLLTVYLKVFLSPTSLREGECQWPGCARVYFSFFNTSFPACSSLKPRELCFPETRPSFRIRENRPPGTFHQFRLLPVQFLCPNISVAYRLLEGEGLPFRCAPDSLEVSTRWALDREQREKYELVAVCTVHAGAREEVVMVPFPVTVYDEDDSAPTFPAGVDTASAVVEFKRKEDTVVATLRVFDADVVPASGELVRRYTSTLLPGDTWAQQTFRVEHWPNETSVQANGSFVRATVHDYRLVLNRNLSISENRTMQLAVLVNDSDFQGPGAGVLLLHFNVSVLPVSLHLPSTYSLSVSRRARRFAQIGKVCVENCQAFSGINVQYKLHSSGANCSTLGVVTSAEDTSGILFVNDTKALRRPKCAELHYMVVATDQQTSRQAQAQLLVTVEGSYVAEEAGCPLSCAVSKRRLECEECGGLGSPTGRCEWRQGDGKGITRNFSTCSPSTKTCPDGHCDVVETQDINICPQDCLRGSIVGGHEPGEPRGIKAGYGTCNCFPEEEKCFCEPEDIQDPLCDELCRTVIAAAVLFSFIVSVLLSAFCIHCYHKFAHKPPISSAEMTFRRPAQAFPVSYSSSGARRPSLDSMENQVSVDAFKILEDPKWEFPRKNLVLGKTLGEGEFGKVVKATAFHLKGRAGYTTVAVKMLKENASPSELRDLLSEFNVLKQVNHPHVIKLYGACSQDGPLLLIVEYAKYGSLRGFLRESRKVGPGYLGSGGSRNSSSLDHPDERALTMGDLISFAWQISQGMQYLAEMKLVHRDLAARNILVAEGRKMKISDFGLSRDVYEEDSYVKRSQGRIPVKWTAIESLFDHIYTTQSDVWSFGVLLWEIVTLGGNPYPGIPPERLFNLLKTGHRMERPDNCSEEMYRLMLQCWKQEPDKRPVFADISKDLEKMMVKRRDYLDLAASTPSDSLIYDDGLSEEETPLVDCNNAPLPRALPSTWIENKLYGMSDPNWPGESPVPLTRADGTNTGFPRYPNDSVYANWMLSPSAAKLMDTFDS
UniProt Q9BRS2: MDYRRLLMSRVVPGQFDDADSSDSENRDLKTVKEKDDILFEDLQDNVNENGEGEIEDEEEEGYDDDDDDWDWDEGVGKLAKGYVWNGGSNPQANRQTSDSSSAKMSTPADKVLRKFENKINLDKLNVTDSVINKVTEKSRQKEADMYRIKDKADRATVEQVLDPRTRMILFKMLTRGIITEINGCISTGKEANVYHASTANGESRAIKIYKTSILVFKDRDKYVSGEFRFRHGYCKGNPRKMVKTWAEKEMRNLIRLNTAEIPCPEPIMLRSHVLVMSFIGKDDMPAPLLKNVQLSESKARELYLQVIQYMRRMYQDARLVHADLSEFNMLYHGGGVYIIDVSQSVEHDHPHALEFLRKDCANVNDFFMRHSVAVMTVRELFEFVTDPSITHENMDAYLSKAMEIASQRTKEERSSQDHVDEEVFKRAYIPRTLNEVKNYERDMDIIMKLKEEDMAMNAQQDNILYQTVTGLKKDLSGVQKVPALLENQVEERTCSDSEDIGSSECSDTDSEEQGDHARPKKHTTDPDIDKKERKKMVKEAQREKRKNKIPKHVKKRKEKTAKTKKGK
UniProt Q13546: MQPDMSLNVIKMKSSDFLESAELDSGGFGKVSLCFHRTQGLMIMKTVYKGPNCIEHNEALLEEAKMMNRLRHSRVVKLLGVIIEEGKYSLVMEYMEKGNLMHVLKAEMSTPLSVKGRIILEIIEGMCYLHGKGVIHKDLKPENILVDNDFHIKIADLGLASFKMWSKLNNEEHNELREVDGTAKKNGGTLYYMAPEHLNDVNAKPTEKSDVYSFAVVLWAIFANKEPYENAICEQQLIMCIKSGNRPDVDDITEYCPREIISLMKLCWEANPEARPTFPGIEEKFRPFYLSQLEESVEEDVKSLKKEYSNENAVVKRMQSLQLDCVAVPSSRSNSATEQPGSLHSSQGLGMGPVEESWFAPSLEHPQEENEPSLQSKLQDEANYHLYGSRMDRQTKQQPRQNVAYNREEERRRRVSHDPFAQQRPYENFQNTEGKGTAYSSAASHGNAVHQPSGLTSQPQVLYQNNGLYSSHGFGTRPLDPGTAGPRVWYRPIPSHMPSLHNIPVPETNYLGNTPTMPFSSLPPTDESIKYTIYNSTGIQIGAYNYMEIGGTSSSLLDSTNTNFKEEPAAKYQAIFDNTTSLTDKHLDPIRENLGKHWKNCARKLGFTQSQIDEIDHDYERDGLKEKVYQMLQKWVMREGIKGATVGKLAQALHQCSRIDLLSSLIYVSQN

Measured: number of time points

CCN(CC)CCCC(C)Nc1nc(C)cc(Nc2ccc3nc(C)cc(N)c3c2)n1 (stereo not given) (10 µM)
0: all assays above

C=CC(=O)Nc1ccc(C(=O)Nc2[nH]nc3c2CN(C(=O)N[C@H](CN(C)C)c2ccccc2)C3(C)C)cc1 (10 µM)
3: [1] | RIPK1
1: RIPK2
0: PRKCA | PTK2B
2: all other assays above

O=C(c1cccc(Cl)c1F)N1CCN(Cc2cccc(Nc3nccs3)n2)CC1 (2.5 µM)
0: all assays above

CCn1c(-c2nonc2N)nc2c(C#CC(C)(C)O)ncc(OC[C@H]3CCCNC3)c21 (10 µM)
0: all assays above

Brc1ccc(CSc2nc3ccccc3o2)cc1 [BMP signaling agonist sb4] (10 µM)
0: all assays above

Cc1cc(C(=O)NOCCO)c(Nc2ccc(I)cc2F)n(C)c1=O (10 µM)
1: PTK2B | RAF1 | RET | RIPK2
0: all other assays above

Cn1cc(-c2cc(Oc3cc(F)c(NC(=O)C4(C(=O)Nc5ccccc5)CC4)cc3F)ccn2)cn1 (2.5 µM)
0: all assays above

CC1(N)CCN(c2cccnc2NC(=O)c2nc(-c3ncccc3C(F)(F)F)cnc2N)CC1 [Darovasertib] (10 µM)
0: all assays above

COc1cc(F)ccc1-c1ncnc(Nc2cccc(C[S@](C)(=N)=O)c2)n1 [Atuveciclib] (2.5 µM)
2: RAF1 | [1] | RIPK1
0: all other assays above

Fc1ccc2[nH]ccc2c1-c1nc(N2CCOCC2)c2sc(CN3CCN(CC4CC4)CC3)cc2n1 (10 µM)
0: all assays above

COc1ccc2c(Oc3ccc4c(C(=O)Nc5ccccc5N)cccc4c3)ccnc2c1 [Chiauranib] (10 µM)
1: PTK2
0: all other assays above

CCNC(=O)C#Cc1ccc2c(C(=Nc3ccc(CN(C)C)cc3)c3ccccc3)c(O)[nH]c2c1 (2.5 µM)
1: PRKCA | PTK2
0: all other assays above

COc1ccc(S(=O)(=O)Nc2cc(-c3c(O)ccc4ccccc34)c(O)c3ccccc23)cc1 (10 µM)
1: [1]
0: all other assays above

COCCOCCc1c(C)c2cc(OC)c(O)c(C=O)c2oc1=O (10 µM)
0: all assays above

N[C@@H]1CCCN(c2c(/C=C3\SC(=O)NC3=O)cccc2-c2ccccc2)C1 (10 µM)
2: RIOK1
3: [1]
0: all other assays above

O=C1Nc2ccc(CN3C(=O)CSC3=O)cc2/C1=C/c1cc(CN2CCOCC2)c[nH]1 (10 µM)
0: all assays above

O=C1CC[C@H](NC(=O)Cc2ccccc2)C(=O)N1 [Antineoplaston A10] (10 µM)
0: all assays above

O=c1cc(-c2ccccc2)oc2cc(O[C@@H]3O[C@H](CO[C@@H]4O[C@H](CO)[C@@H](O)[C@H](O)[C@H]4O)[C@@H](O)[C@H](O)[C@H]3O)c(O)c(O)c12 [Oroxin B] (10 µM)
0: all assays above

CCCCCc1ccc(/C=C/[C@H](O)[C@@H](CO)NC)cc1 [SK1-I (hydrochloride)] (10 µM)
0: all assays above

COc1ccc(Nc2ncc(C(F)(F)F)c(NC3CC3)n2)cc1OC (10 µM)
4: [2]
3: [1] | RIPK2
0: all other assays above

COCCOc1ccc2c(c1)ncn2-c1ccc2cccc(N3CCC(N)CC3)c2n1 (10 µM)
3: RIPK1 | RIPK2
0: PRKCA | [2]
1: PTK2B
4: [1]
2: all other assays above

Cc1nn(C)cc1-c1nc2c(N3CCN(Cc4ccc(Cl)cc4)CC3)c(Cl)cnc2[nH]1 (10 µM)
0: all assays above

COc1cc(N2CCC(N3CCN(C)CC3)CC2)ccc1Nc1ncc(Cl)c(-c2c[nH]c3ccccc23)n1 (2.5 µM)
0: all assays above

CC(Sc1nc2c(cnn2-c2cccc(Cl)c2)c(=O)[nH]1)C(N)=O (stereo not given) (10 µM)
0: all assays above

N#C/C(=C\c1ccc(O)c(O)c1)C(=O)O [Tyrphostin AG30] (10 µM)
0: all assays above

C[C@@H]1O[C@@H](Oc2cc(O)c3c(=O)c(O[C@@H]4O[C@@H](C)[C@H](O)[C@@H](O)[C@H]4O)c(-c4ccc(O)cc4)oc3c2)[C@H](O)[C@H](O)[C@H]1O [Kaempferitrin] (10 µM)
0: all assays above

In the list so far, these contain an aryl thioether with sulfur outside any ring.
Brc1ccc(CSc2nc3ccccc3o2)cc1 [BMP signaling agonist sb4] (10 µM)
0: all assays above

CC(Sc1nc2c(cnn2-c2cccc(Cl)c2)c(=O)[nH]1)C(N)=O (stereo not given) (10 µM)
0: all assays above

Following part:

Nc1nccc(-c2c(-c3ccc(F)cc3)ncn2C2CCCCC2)n1 (10 µM)
1: PTK2 | RIPK2
0: all other assays above

Cc1cc([C@@H](C)Nc2ccccc2C(=O)O)c2nc(N3CCOCC3)cc(=O)n2c1 (10 µM)
0: all assays above

Cc1ccc(C)c(OCCn2cc(C(=O)O)c3ccccc32)c1 (10 µM)
0: all assays above

NC[C@@](O)(c1ccc(Cl)cc1)c1ccc(-c2cn[nH]c2)cc1 (10 µM)
0: all assays above

CC(C)[C@H](CO)Nc1nc(Nc2cccc(Cl)c2)c2ncn(C(C)C)c2n1 [Purvalanol A] (10 µM)
4: PTK2
0: all other assays above

O=C(O)c1ccc(/C=C/S(=O)(=O)Cc2ccc(Cl)cc2)cc1 [Recilisib] (10 µM)
4: PRKCA
0: all other assays above

Cc1c(C)c(NCC(=O)N(C)C2CCN(Cc3ccc(C(N)=O)cc3)CC2)c(C)c(C)c1N (10 µM)
0: all assays above

C=CC(=O)Nc1cc(Nc2nccc(-c3cn(C)c4ccccc34)n2)c(OC)cc1OCCN(C)C [Rezivertinib] (2.5 µM)
0: all assays above

C=C1C(=O)[C@@]23[C@H](O)C[C@@H]4C(C)(C)C(=O)CC[C@@]4(C)[C@@H]2CC[C@@H]1[C@H]3O [Glaucocalyxin A] (2.5 µM)
2: RIPK1
0: all other assays above
